Results: publication PMC3976305
No constants are given. Whether binding was seen depends on the method and setting. Binding seen in cells or lysates may run through a third protein. For part of these data: Binding calls can cover weak binding; strength is not graded here. Tags and fused reporters may be left off the sequences shown. Values belong to the molecule of their own block, whether it stands above or below them.

Amino acid sequences for entries named in this document (tags omitted). A change or cut given only in a name is not applied to a line headed by its entry.
UniProt Q14114: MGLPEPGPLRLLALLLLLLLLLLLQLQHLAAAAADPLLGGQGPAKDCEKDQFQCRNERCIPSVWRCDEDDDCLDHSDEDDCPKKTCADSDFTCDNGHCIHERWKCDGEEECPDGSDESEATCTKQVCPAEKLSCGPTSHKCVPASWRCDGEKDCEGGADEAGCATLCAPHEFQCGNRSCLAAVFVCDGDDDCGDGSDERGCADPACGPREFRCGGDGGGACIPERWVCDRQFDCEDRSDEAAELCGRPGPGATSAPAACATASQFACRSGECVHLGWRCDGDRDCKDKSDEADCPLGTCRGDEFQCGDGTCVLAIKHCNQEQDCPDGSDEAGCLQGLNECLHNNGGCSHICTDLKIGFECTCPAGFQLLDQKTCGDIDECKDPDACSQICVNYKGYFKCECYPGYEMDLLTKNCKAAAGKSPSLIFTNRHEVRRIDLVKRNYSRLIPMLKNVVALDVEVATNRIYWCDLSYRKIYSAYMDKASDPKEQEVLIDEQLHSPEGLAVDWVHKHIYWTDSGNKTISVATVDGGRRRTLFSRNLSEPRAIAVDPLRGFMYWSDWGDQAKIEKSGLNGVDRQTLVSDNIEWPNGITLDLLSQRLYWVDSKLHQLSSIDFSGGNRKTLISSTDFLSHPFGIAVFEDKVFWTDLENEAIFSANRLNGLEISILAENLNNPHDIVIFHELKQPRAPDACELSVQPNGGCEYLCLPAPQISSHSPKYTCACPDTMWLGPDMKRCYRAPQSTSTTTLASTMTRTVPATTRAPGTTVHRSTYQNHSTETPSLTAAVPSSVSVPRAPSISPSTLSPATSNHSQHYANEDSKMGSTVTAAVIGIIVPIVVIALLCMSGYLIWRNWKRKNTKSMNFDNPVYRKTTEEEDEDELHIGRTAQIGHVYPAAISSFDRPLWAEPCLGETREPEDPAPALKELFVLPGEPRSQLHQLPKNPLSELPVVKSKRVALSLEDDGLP

Experiments:
[1] = biological target: T1, myc-SNX17 (full-length mouse SNX17 with a 9xmyc epitope) (mouse) (UniProt Q8BVL3); experiment: co-IP; extracts of HEK293 cells transiently transfected with myc-SNX17 and HA-ApoER2 (wild type or NPxA); immunoprecipitated with anti-myc, blotted with anti-HA
T1 sequence: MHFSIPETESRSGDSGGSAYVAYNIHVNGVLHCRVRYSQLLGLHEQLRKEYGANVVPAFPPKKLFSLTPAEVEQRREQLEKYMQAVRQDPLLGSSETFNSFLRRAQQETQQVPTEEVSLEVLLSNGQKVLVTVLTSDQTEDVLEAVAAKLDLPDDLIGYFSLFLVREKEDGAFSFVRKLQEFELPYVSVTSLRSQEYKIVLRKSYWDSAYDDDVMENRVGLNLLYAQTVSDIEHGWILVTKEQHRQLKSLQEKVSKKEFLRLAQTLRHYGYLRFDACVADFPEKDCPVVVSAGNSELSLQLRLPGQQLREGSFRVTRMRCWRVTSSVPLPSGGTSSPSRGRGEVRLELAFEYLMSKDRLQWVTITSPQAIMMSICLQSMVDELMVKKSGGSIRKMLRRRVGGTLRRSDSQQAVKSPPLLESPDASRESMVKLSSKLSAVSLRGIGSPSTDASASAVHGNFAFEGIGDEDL

[2] = biological target: T2, GST-SNX17 (full-length SNX17 fused to GST) (UniProt Q8BVL3); experiment: pull-down; GST-SNX17 (full length) on glutathione agarose beads incubated with lysates of HEK 293 cells transfected with HA-ApoER2 wild-type or NPxY/A; HUNT buffer, 3 h at 4°C; anti-HA western blot; only the target purified
T2 sequence: T1 sequence

[3] = biological target: GST-ApoER2 (full-length cytoplasmic domain of ApoER2 fused to GST); experiment: pull-down; GST-ApoER2 tail on glutathione agarose beads incubated with lysates of HEK 293 cells transfected with myc-SNX17 constructs; HUNT buffer (20 mM Tris-HCl pH 8.0, 100 mM NaCl, 1 mM EDTA, 0.5% NP-40), 3 h at 4°C; anti-myc western blot; only the target purified

binding [1]: no binding
binding [2]: no binding
Molecule: HA-ApoER2 mutated (NPxY/A) (from UniProt Q14114) (receptor)

binding [3]: no binding
B1: myc-SNX17 200–470 (domain or fragment, UniProt Q8BVL3 200-470)
chain: VLRKSYWDSAYDDDVMENRVGLNLLYAQTVSDIEHGWILVTKEQHRQLKSLQEKVSKKEFLRLAQTLRHYGYLRFDACVADFPEKDCPVVVSAGNSELSLQLRLPGQQLREGSFRVTRMRCWRVTSSVPLPSGGTSSPSRGRGEVRLELAFEYLMSKDRLQWVTITSPQAIMMSICLQSMVDELMVKKSGGSIRKMLRRRVGGTLRRSDSQQAVKSPPLLESPDASRESMVKLSSKLSAVSLRGIGSPSTDASASAVHGNFAFEGIGDEDL

binding [3]: no binding
B2: myc-SNX17 2-250 (domain or fragment, UniProt Q8BVL3 2-250)
chain: HFSIPETESRSGDSGGSAYVAYNIHVNGVLHCRVRYSQLLGLHEQLRKEYGANVVPAFPPKKLFSLTPAEVEQRREQLEKYMQAVRQDPLLGSSETFNSFLRRAQQETQQVPTEEVSLEVLLSNGQKVLVTVLTSDQTEDVLEAVAAKLDLPDDLIGYFSLFLVREKEDGAFSFVRKLQEFELPYVSVTSLRSQEYKIVLRKSYWDSAYDDDVMENRVGLNLLYAQTVSDIEHGWILVTKEQHRQLKSL

binding [3]: binds
B3: myc-SNX17 105–470 (domain or fragment, UniProt Q8BVL3 105-470)
chain: AQQETQQVPTEEVSLEVLLSNGQKVLVTVLTSDQTEDVLEAVAAKLDLPDDLIGYFSLFLVREKEDGAFSFVRKLQEFELPYVSVTSLRSQEYKIVLRKSYWDSAYDDDVMENRVGLNLLYAQTVSDIEHGWILVTKEQHRQLKSLQEKVSKKEFLRLAQTLRHYGYLRFDACVADFPEKDCPVVVSAGNSELSLQLRLPGQQLREGSFRVTRMRCWRVTSSVPLPSGGTSSPSRGRGEVRLELAFEYLMSKDRLQWVTITSPQAIMMSICLQSMVDELMVKKSGGSIRKMLRRRVGGTLRRSDSQQAVKSPPLLESPDASRESMVKLSSKLSAVSLRGIGSPSTDASASAVHGNFAFEGIGDEDL

binding [3]: binds
B4: myc-SNX17 (full-length mouse SNX17 with a 9xmyc epitope) (protein, UniProt Q8BVL3 1-470)
chain: T1 sequence
